The values below come from PMC5620210.

This assay addresses WAVE2 (WASF2) (human (endogenous in WRO and FTC133)) (UniProt Q9Y6W5). Kind of assay: co-IP; WAVE2 immunoprecipitation (anti-WAVE2 antibody 1:50, 4°C overnight, Protein G-sepharose) from lysates of WRO and FTC133 cells expressing HA-ABI3, western blot; also after 2 h with 20 uM LY294002 (more co-precipitate). On the technique in general: In western blotting, separated proteins are transferred to a membrane and probed.

These are yes or no findings as the source states them, for the method shown. Binding seen in cells or lysates may run through a third protein. Some binding calls cover weakened binding; strength is not graded here.

Consider CYFIP1 (from UniProt Q7L576 1-1253), for which the binding result is reported as “binds”.
